Among the data in article PMC9200286 are binding values, retold here.

The chains behind the UniProt entries cited, without tags or fusion partners.
UniProt Q61026: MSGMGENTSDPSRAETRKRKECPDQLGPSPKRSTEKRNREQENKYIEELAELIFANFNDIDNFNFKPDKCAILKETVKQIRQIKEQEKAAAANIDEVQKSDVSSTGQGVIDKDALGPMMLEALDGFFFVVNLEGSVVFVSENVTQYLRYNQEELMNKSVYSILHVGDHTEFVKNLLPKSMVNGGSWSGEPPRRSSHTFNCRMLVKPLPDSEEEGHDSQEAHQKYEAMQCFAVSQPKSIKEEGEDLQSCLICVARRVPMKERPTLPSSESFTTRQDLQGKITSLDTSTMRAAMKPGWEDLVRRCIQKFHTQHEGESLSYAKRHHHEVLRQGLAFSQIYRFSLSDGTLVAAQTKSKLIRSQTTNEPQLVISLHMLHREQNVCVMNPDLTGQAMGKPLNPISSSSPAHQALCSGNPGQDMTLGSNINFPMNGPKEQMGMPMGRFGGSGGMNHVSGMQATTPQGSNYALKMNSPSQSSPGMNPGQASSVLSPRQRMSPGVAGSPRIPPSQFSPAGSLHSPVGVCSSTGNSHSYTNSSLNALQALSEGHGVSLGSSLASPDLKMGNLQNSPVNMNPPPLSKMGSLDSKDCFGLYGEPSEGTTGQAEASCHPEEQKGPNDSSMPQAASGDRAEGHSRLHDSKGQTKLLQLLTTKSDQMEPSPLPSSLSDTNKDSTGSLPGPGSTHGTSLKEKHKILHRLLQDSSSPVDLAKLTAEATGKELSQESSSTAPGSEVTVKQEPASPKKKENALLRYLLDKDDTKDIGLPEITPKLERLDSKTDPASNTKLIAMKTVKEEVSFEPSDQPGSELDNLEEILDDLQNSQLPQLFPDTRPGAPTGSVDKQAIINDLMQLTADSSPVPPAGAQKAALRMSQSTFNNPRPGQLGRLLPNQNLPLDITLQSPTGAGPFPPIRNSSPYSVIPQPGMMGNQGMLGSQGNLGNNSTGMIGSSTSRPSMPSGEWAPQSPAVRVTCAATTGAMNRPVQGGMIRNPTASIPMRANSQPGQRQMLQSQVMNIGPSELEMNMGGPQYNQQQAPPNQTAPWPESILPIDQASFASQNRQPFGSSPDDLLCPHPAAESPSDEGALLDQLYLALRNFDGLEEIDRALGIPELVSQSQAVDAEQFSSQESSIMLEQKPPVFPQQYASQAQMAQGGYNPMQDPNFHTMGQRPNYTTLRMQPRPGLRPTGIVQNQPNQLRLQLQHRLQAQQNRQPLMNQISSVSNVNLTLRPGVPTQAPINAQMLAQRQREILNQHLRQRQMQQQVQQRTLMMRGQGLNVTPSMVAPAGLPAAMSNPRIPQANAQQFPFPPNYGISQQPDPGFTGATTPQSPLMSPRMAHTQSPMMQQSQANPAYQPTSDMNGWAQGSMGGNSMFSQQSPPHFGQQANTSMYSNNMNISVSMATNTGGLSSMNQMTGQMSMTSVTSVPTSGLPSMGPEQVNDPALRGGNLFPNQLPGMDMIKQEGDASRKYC

Results are given in words; binding and its absence hold for the method and conditions named. In cells and extracts the contact can be indirect. Some entries that bind do so weakly or less than the wild type.

The target in this test is Steroid nuclear receptor coactivator 2 (mouse (endogenous in CD4+ T cells of SRC2fl/fl mice)) (UniProt Q61026). Description: co-IP; anti-SRC2 antibody immunoprecipitation from lysate of SRC2fl/fl CD4+ cells 24 hours after Treg polarization; Pierce IP Lysis Buffer (1% Triton X-100, 20 mM tris-Cl pH 7.4, 150 mM NaCl, 5 mM EDTA), overnight with antibody, protein A/G Sepharose beads 4 hours at 4°C; immunoblot for NFAT1. A general note: Immunoblotting shows a protein as a band on a membrane.

B1: NFAT1 (protein, UniProt Q60591 1-927)
chain: MDVPEPQPDPDGGDGPGHEPGGSPQDELDFSILFDYDYLNPIEEEPIAHKAISSPSGLAYPDDVLDYGLKPCNPLASLSGEPPGRFGEPDSIGFQNFLSPVKPAGASGPSPRIEITPSHELMQAGGALRGRDAGLSPEQPALALAGVAASPRFTLPVPGYEGYREPLCLSPASSGSSASFISDTFSPYTSPCVSPNNAGPDDLCPQFQNIPAHYSPRTSPIMSPRTSLAEDSCLGRHSPVPRPASRSSSPGAKRRHSCAEALVAPLPAASPQRSRSPSPQPSPHVALQDDSIPAGYPPTAGSAVLMDALNTLATDSPCGIPSKIWKTSPDPTPVSTAPSKAGLARHIYPTVEFLGPCEQEERRNSAPESILLVPPTWPKQLVPAIPICSIPVTASLPPLEWPLSNQSGSYELRIEVQPKPHHRAHYETEGSRGAVKAPTGGHPVVQLHGYMENKPLGLQIFIGTADERILKPHAFYQVHRITGKTVTTTSYEKIVGNTKVLEIPLEPKNNMRATIDCAGILKLRNADIELRKGETDIGRKNTRVRLVFRVHVPEPSGRIVSLQAASNPIECSQRSAHELPMVERQDMDSCLVYGGQQMILTGQNFTAESKVVFMEKTTDGQQIWEMEATVDKDKSQPNMLFVEIPEYRNKHIRVPVKVNFYVINGKRKRSQPQHFTYHPVPAIKTEPSDEYEPSLICSPAHGGLGSQPYYPQHPMLAESPSCLVATMAPCQQFRSGLSSPDARYQQQSPAAALYQRSKSLSPGLLGYQQPSLLAAPLGLADAHRSVLVHAGSQGQGQGSTLPHTSSASQQASPVIHYSPTNQQLRGGGHQEFQHIMYCENFGPSSARPGPPPINQGQRLSPGAYPTVIQQQTAPSQRAAKNGPSDQKEALPTGVTVKQEQNLDQTYLDDVNEIIRKEFSGPPSRNQT
Take B1: the binding result is recorded as “binds”.
